The name of at least one read-out is uncertain.
Key:
[1] = HPβCD as a solubilizer for benzyl atropine; type: physicochemical; conditions: 10% HPβCD, phosphate buffer, concentrations close to the solubility limit
[2] = Concentration of benzyl atropine in surfactant mixtures; type: physicochemical; conditions: 5% PEG-35 castor oil in phosphate buffer, pH 2.8 vs. in acetic acid buffer

## CN1C2CCC1CC(OC(=O)C(CO)(Cc1ccccc1)c1ccccc1)C2 (racemic) [Benzyl Atropine, benzyl atropine]
[1]
  solubilization by HPβCD (in words): solubilize benzyl atropine effectively
[2]
  increase in solubility with a change in the buffering vehicle: two-fold increase
